In patent publication US20230312724A1:
No constants are given. Whether binding was seen depends on the method and setting. Some binding calls cover weakened binding; strength is not graded here.

Protein sequences, listed by entry. Tags and fused reporters are not part of them. Lines headed by an entry give the natural chain unless they say otherwise; changes in a name come on top.
UniProt Q7TSP5: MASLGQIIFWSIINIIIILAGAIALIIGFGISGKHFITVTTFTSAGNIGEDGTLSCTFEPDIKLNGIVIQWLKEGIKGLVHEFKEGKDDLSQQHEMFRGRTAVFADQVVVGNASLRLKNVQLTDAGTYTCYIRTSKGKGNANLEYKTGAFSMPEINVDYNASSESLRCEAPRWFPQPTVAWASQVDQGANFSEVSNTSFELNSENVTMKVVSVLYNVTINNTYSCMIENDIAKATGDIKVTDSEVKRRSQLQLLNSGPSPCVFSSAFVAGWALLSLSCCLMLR
UniProt Q7Z7D3: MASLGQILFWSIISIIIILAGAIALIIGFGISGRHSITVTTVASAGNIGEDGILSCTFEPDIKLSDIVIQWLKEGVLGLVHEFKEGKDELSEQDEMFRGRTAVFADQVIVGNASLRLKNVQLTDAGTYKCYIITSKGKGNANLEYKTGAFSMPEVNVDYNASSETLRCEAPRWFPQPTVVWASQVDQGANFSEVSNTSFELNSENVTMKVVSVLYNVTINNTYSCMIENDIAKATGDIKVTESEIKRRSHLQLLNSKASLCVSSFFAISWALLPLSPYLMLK

Columns and labels:
mouse B7-H4-his (mouse) [1] = target: mouse B7-H4-his (mouse) (UniProt Q7TSP5); test: ELISA (FIG. 30D)
human B7-H4-his (human) [2] = target: human B7-H4-his (human) (UniProt Q7Z7D3); test: ELISA (FIG. 30C)
human B7-H4-Fc (human) [3] = test: ELISA on coated human B7-H4Fc
human B7-H4-his (human) [4] = target: human B7-H4-his (human) (UniProt Q7Z7D3); test: ELISA on coated human B7-H4his
human B7-H4-Fc (human) [5] = test: ELISA (FIG. 30A)
mouse B7-H4-his (mouse) [6] = target: mouse B7-H4-his (mouse) (UniProt Q7TSP5); test: ELISA on coated mB7-H4-his
human B7-H4-his (human) [7] = target: human B7-H4-his (human) (UniProt Q7Z7D3); test: ELISA on coated hB7-H4-his
[8] = target: IgV domain of mouse B7-H4-Fc (mouse; human); test: ELISA on coated IgV domain of mB7-H4
human B7-H4-Fc (human) [9] = test: ELISA on coated hB7-H4-Fc
mouse B7-H4-his (mouse) [10] = target: mouse B7-H4-his (mouse) (UniProt Q7TSP5); test: ELISA on coated mouse B7-H4his
[11] = target: IgV domain of human B7-H4-Fc (human); test: ELISA and SPR (FIG. 22, Table 14)
[12] = target: IgV domain of mouse B7-H4-Fc (mouse; human); test: ELISA and SPR (FIG. 22, Table 14)
[13] = target: IgV domain of human B7-H4-Fc (human); test: ELISA on coated IgV domain of hB7-H4

Measured: binding

39A11/57G8-IL15 (from UniProt P0DOX5 1-449; P0DOX7 1-214)
binds: mouse B7-H4-his (mouse) [1] | human B7-H4-his (human) [2] | human B7-H4-Fc (human) [3] | human B7-H4-his (human) [4] | human B7-H4-Fc (human) [5] | mouse B7-H4-his (mouse) [6] | human B7-H4-his (human) [7] | [8] | human B7-H4-Fc (human) [9] | mouse B7-H4-his (mouse) [10] | [11] | [12] | [13]

39A11/57G8-IL15-LS (from UniProt P0DOX5 1-449; P0DOX7 1-214)
binds: mouse B7-H4-his (mouse) [1] | human B7-H4-his (human) [2] | human B7-H4-Fc (human) [3] | human B7-H4-his (human) [4] | human B7-H4-Fc (human) [5] | mouse B7-H4-his (mouse) [10]
